Source: patent US20230120211A1, “HDAC Degrader” (University of Leicester, priority 2020, published 2023)
For some assays here: At least one structure is not confirmed: it was looked up by name or label, or the drawing left a doubt. Some results were stated once for a whole list of compounds, not compound by compound.

By UniProt entry, the sequences of proteins in these tests, tags left out.
UniProt Q13547, whole entry: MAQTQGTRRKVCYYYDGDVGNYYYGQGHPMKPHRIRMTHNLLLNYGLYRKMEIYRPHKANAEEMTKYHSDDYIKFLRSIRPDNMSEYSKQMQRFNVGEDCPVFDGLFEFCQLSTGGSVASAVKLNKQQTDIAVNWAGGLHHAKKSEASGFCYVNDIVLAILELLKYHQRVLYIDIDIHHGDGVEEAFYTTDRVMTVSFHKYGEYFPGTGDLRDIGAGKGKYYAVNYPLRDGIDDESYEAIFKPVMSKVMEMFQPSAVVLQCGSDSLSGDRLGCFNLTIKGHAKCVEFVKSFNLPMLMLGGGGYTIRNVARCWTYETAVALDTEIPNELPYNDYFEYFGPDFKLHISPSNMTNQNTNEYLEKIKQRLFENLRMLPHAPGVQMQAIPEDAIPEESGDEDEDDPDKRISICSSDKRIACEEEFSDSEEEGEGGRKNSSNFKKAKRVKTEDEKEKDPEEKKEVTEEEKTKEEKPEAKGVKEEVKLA

What was measured:
[1] = target: LSD1-CoREST-HDAC1 complex (Homo sapiens, UniProt Q13547); experiment: fluorescent deacetylase assay with the LSD1-CoREST-HDAC1 complex (Example 2, FIG. 3A); type: biochemical
Experimental: The inventors evaluated their preliminary PROTACs in vitro using an established fluorescent deacetylase assay with the LSD1-CoREST-HDAC1 complex. This complex was used as an exemplary HDAC multiprotein complex to determine if such heterobifunctional molecules PROTACs 1-4 can still engage the HDAC enzyme in the context of an intact multiprotein complex.
Inhibition tests against LSD1-HDAC-CoREST complex were performed using a two-enzyme fluorescence-based HDAC assay. The inhibitor/PROTACs were dissolved at 50 mM in DMSO, then 1:2 serial dilutions performed using HDAC assay buffer (50 mM Tris pH 7.5, 150 mM NaCl) to afford range of concentrations.
The assays were performed in black 96-well plates with a reaction volume of 50 μL per well. All determinations were performed in triplicate. […] After an incubation of 20 minutes at 37° C. and 150 rpm, deacetylation was stopped by the addition of 50 μL of a developing solution containing trypsin (50 mM Tris pH 7.5, 100 mM NaCl, 10 mg/mL trypsin). […] HDAC Activity was calculated by subtracting the average blank fluorescence from the well fluorescence. Graphpad Prism software was utilised to determine IC50 values.

[2] = test system: H3K56ac; experiment: H3K56ac levels in E14 mouse embryonic stem cells, quantitative western blot; type: cell-based; details: E14 mES cells, 24 h; CI-994 40 μM, Panobinostat 30 nM
Experimental: The inventors proceeded to assess their compounds effects on HDAC activity in cells.
To examine the ability of PROTACs 1-4 to reduce HDAC1, 2 and 3 activity in cells they began by measuring H3K56ac using quantitative western blotting (see FIG. 3B).
HCT116 or mES cells were treated 24 hours after seeding. 24 hours post treatment, cells were harvested, lysed in lysis buffer (50 mM Tris-HCl, 150 mM NaCl, 0.5% NP-40, 0.5% Triton X-100) with protease inhibitor (Sigma, P8340), then incubated on ice for 30 minutes, before being centrifuged (18,000 ref, 15 minutes, 4° C.). The supernatant was collected, and protein concentrations quantified via Bradford Assay using Protein Assay Dye Reagent Concentrate (BIO-RAD). For histone extraction, an equal volume of 0.4 N H2SO4 was added to the pellets and the extracts placed at 4° C. overnight. Following overnight incubation, the tubes were centrifuged (18,000 ref, 15 minutes, 4° C.) and then the supernatant (histone extract) collected.
Western blots were run on NuPAGE™ 4-12% Bis-Tris gels with 20-30 μg of protein or 10 μL of acid-extracted histone loaded per lane, using NuPAGE™ LDS Sample Buffer (4×). PageRuler™ Plus Prestained Ladder was used for size standards. […] Image processing and band intensity quantification was performed using Image Studio Lite.

Structure (SMILES) | inhibitory reduction compared to PROTACs 1 and 3 [1] | H3K56 acetylation level [2]
Cc1ncsc1-c1ccc(CNC(=O)[C@@H]2C[C@@H](O)CN2C(=O)[C@@H](NC(=O)CCCCCCCCCCC(=O)Nc2ccc(C(=O)Nc3ccccc3N)cc2)C(C)(C)C)cc1 [PROTAC4, N1-(4-((2-aminophenyl)carbamoyl)phenyl)-N12-((S)-1-((2S,4R)-4-hydroxy-2-((4-(4-methylthiazol-5-yl)benzyl)carbamoyl)pyrrolidin-1-yl)-3,3-dimethyl-1-oxobutan-2-yl)dodecanediamide] | 10-15 fold | –
Cc1[nH]c2ccccc2c1CCNCc1ccc(/C=C/C(=O)NO)cc1 [Panobinostat, reference compound] | – | increased
